Data as given in article PMC12743511, “HSD17β11 regulates PLIN5-ATGL mediated lipolysis, but not hepatic lipid metabolism in mice” (Journal of Lipid Research, 2025).

Amino acid sequences for entries named in this document (tags omitted). A change or cut given only in a name is not applied to a line headed by its entry.
UniProt Q8NBQ5: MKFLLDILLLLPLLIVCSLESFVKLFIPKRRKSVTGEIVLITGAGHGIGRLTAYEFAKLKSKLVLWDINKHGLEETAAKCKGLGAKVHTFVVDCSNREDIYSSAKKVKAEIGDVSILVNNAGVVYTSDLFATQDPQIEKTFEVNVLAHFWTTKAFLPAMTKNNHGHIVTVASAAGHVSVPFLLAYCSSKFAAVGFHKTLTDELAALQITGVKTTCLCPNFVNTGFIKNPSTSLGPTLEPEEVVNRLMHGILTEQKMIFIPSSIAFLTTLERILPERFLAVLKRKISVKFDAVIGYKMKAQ

Target: T1, 3HA-PLIN5 (UniProt Q00G26)
T1 sequence: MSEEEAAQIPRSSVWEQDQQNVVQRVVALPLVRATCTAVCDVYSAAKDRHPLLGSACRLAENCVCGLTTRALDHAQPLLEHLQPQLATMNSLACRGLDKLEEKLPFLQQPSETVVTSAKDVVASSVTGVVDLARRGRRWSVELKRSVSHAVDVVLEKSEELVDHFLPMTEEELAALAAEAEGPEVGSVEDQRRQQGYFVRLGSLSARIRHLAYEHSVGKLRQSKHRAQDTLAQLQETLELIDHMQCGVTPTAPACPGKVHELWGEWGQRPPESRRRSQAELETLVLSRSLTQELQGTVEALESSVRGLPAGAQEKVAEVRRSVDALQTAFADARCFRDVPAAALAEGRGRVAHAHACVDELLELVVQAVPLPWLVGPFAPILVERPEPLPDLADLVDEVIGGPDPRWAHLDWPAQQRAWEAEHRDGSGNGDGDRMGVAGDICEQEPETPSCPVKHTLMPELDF
Assay: affinity purification with mass spectrometry; anti-HA agarose immunoprecipitation from lysates (1% n-dodecyl-β-D-maltoside, 150 mmol/L NaCl, HEPES pH 7.4) of HEK293T cells stably expressing 3HA-PLIN5 versus 3HA-eGFP, 4°C overnight; label-free proteomics

binding: binds
Substance: HSD17β11 (hydroxysteroid 17β dehydrogenase 11), endogenous (from UniProt Q8NBQ5)

These are yes or no findings as the source states them, for the method shown. Binding seen in cells or lysates may run through a third protein. These calls come from enrichment with a bait or labelling near it, and not all partners need be listed.
